# Data reported in patent US20150218212A1 (FLUORINOV PHARMA INC., priority 2012, published 2015).
# Experiment: general procedure: solution-phase peptide synthesis; HBTU, 1-hydroxybenzotriazole hydrate, DIPEA
# Conditions: coupling step
substance,measurement,value
(2S)—N-[(1S)-1-(difluoromethoxymethyl)-2-[[(1S)-3-methyl-1-[(2R)-2-methyloxirane-2-carbonyl]butyl]amino]-2-oxo-ethyl]-2-[[(2S)-3-(difluoromethoxy)-2-[(2-morpholinoacetyl)amino]propanoyl]amino]-4-methyl-pentanamide,step yield,31%
